# Data source: PubChem BioAssay AID504786 (Drosophila RNAi Screening Center, 2011)
# Assay: 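Fly genes required for HIF-dependent transcription when hypoxia is mimicked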 (primary screen)
# System: Drosophila S2 cells with a stable HIF luciferase reporter
# Knock-down reagent: long dsRNA against Drosophila genes, about 0.2 µg dsRNA per well of a 384-well plate
# Duration: three days of knock-down, then 20 h of DFO before reading
# Treatment: desferrioxamine (DFO) at 100 µM, an iron chelator that mimics hypoxia, for 20 h
# Measured: 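HIF reporter luminescence in cells given 100 µM DFO for 20 h, using the mouse ldh-a hypoxia-response element, scored as per-plate z-scores; higher means greater loss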
# Reading the numbers: z-score: higher = stronger loss of HIF reporter signal
# The screen tested about 21,000 reagents; this is an unselected part of those with a known target gene and a result. 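Primary screen; positive scores mean lost reporter signal, so the sign may be inverted from the usual convention.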 The numbers tell different reagents against one gene apart. A plus sign joins genes that one reagent is predicted to hit.
gene knocked down,reagent no.,"z-score, replicate 1","z-score, replicate 2","z-score, replicate 3","z-score, replicate 4"
CG12436 (retired record),1,-0.2,0.4,,
CG12436 (retired record),2,-0.4,-0.6,,
qua (quail),1,-0.3,-0.4,,
CG7083,1,-0.1,-0.6,,
CG2611,1,-0.3,0,,
CG13578,1,-0.3,0,,
arg (arginase),1,-0.2,-0.3,,
Galphao (G protein alpha subunit o),1,-0.3,-0.3,,
CR9337 (pseudo),1,-0.3,-0.6,,
yellow-c + CIAPIN1,1,-0.2,-0.1,,
tio (tiptop),1,-0.3,-0.4,,
Zyx (Zyxin),1,-0.2,-0.5,,
CG9452,1,1.7,0.1,,
CG5347,1,-0.2,0,,
NijB (Ninjurin B),1,-0.9,-0.3,,
CG14414,1,-0.4,-0.8,,
SelR (Selenoprotein R),1,-0.4,-0.8,,
CG7907,1,0.3,0.4,,
CG15916,1,-0.3,-0.8,,
RpL10 (Ribosomal protein L10),1,7.1,6.2,,
vex (vexed),1,-0.3,-0.8,,
vex (vexed),2,-0.2,-0.6,,
PolA2 (DNA polymerase alpha subunit 2),1,0.6,0.5,,
CG10748,1,-0.2,-0.2,,
timeout,1,-0.1,-0.3,,
timeout,2,0.4,0.4,,
timeout,3,-0.1,0,,
timeout,4,-0.1,-0.2,,
timeout,5,-0.2,-0.2,,
CG15423,1,0,-0.3,,
Reg-2 (Rhythmically expressed gene 2),1,0.1,0.5,,
CG8089,1,-0.2,-0.6,,
RanBPM (Ran-binding protein M),1,-0.4,-0.8,,
mld (molting defective),1,-0.5,-0.5,,
mld (molting defective),2,-0.2,-0.5,,
VAChT + ChAT,1,-0.3,0.4,,
CG18477 + CG31780,1,-0.2,-0.5,,
dco (discs overgrown),1,-0.4,-0.2,,
ND-B12 (NADH dehydrogenase (ubiquinone) B12 subunit),1,0.1,-0.2,,
GC1,1,-0.3,0,,
ogre (optic ganglion reduced),1,-0.4,-0.5,,
Dark (Death-associated APAF1-related killer),1,-0.3,-0.3,,

11 of these entries in another layout:
| gene knocked down | reagent no. | z-score, replicate 1 | z-score, replicate 2 | z-score, replicate 3 | z-score, replicate 4 |
| --- | --- | --- | --- | --- | --- |
| yellow-c + CIAPIN1 | 1 | -0.2 | -0.1 | – | – |
| tio (tiptop) | 1 | -0.3 | -0.4 | – | – |
| Zyx (Zyxin) | 1 | -0.2 | -0.5 | – | – |
| CG9452 | 1 | 1.7 | 0.1 | – | – |
| CG5347 | 1 | -0.2 | 0 | – | – |
| NijB (Ninjurin B) | 1 | -0.9 | -0.3 | – | – |
| CG14414 | 1 | -0.4 | -0.8 | – | – |
| SelR (Selenoprotein R) | 1 | -0.4 | -0.8 | – | – |
| CG7907 | 1 | 0.3 | 0.4 | – | – |
| CG15916 | 1 | -0.3 | -0.8 | – | – |
| RpL10 (Ribosomal protein L10) | 1 | 7.1 | 6.2 | – | – |

Further entries follow:
gene knocked down,reagent no.,"z-score, replicate 1","z-score, replicate 2","z-score, replicate 3","z-score, replicate 4"
cwo (clockwork orange),1,-0.6,-1.3,,
CG4734,1,-0.5,-0.4,,
Clbn (Caliban),1,-0.2,0,,
Tab2 (TAK1-associated binding protein 2),1,-0.3,-0.5,,
CG13806,1,-0.1,2.3,,
Noc1 (Nucleolar complex protein 1),1,-0.1,0.6,,
Bdbt (Bride of doubletime),1,0.4,-0.7,,
mdy (midway),1,-0.4,-0.4,,
mdy (midway),2,-0.3,-0.1,,
Arf4 (ADP ribosylation factor 4),1,-0.5,-0.4,,
Pmm2 (Phosphomannomutase type 2),1,-0.2,-0.2,,
CG14757,1,-0.4,-0.6,,
CG5107,1,-0.4,-0.2,,
CG34242,1,-0.1,0.2,,
Rad51D (Rad51 recombinase D),1,-0.3,-0.5,,
CG6023,1,-0.4,0.3,,
CG5892,1,0.2,0,,
Or85f (Odorant receptor 85f),1,-0.2,-0.2,,
CG11226,1,-0.3,-0.4,,
RhoU,1,-0.4,-0.4,,
RhoU,2,-0.2,-0.4,,
RhoU,3,-0.2,-0.5,0.3,0.1
mthl3 (methuselah-like 3),1,-0.2,-0.2,,
for (foraging),1,-0.4,-0.5,,
for (foraging),2,-0.3,-0.4,,
ebd2 (earthbound 2),1,-0.3,-0.3,,
CG17742 (retired record),1,2.8,5.3,,
CG3376,1,0.1,-0.9,,
CG8773,1,0.2,0.2,,
Clamp (Chromatin-linked adaptor for MSL proteins),1,-0.3,-0.3,,
CG13186,1,-0.3,-0.3,,
CG31635,1,-0.5,-0.6,,
CG31635,2,-0.4,-0.6,,
lncRNA:CR40629 (long non-coding RNA:CR40629),1,0,0,,
rib (ribbon),1,-0.4,-0.8,,
Grx3 (Glutaredoxin 3),1,-0.4,-0.5,,
Pen (Pendulin),1,-0.3,-0.8,,
hb (hunchback),1,-0.4,-0.2,,
CG8292,1,-0.2,-0.4,,
Lint-O (L(3)mbt interactor in ovarian somatic cells),1,-0.3,-0.6,,
CG15225,1,-0.2,-0.3,,
